The values that follow come from publication PMC12443605.

Chains of the proteins cited; added tags and fusions are not shown.
UniProt Q12929: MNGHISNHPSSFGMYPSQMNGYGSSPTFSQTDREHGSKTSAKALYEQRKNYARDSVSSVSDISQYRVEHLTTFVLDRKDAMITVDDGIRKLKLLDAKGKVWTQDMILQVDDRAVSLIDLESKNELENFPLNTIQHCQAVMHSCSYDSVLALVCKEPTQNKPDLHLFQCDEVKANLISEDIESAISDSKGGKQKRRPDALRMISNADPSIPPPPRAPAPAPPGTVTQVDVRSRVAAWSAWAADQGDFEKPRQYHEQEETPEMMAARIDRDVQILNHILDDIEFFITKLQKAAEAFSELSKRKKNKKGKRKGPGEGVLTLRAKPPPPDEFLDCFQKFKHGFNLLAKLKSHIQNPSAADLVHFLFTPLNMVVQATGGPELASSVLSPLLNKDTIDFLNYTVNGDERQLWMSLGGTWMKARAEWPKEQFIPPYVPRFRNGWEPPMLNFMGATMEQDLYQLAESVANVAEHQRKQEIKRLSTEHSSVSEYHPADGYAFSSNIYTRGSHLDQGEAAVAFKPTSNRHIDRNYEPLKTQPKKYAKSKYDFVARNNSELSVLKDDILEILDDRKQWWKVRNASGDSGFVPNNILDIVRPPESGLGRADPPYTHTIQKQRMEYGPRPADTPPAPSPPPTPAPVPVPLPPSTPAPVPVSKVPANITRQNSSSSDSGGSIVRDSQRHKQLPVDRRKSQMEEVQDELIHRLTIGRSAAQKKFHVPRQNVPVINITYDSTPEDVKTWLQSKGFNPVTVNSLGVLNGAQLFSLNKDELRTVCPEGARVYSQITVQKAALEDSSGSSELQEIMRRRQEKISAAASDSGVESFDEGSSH

The target of the assay is T1, USP4 (human (endogenous in HEK293)) (UniProt Q13107).
T1 sequence: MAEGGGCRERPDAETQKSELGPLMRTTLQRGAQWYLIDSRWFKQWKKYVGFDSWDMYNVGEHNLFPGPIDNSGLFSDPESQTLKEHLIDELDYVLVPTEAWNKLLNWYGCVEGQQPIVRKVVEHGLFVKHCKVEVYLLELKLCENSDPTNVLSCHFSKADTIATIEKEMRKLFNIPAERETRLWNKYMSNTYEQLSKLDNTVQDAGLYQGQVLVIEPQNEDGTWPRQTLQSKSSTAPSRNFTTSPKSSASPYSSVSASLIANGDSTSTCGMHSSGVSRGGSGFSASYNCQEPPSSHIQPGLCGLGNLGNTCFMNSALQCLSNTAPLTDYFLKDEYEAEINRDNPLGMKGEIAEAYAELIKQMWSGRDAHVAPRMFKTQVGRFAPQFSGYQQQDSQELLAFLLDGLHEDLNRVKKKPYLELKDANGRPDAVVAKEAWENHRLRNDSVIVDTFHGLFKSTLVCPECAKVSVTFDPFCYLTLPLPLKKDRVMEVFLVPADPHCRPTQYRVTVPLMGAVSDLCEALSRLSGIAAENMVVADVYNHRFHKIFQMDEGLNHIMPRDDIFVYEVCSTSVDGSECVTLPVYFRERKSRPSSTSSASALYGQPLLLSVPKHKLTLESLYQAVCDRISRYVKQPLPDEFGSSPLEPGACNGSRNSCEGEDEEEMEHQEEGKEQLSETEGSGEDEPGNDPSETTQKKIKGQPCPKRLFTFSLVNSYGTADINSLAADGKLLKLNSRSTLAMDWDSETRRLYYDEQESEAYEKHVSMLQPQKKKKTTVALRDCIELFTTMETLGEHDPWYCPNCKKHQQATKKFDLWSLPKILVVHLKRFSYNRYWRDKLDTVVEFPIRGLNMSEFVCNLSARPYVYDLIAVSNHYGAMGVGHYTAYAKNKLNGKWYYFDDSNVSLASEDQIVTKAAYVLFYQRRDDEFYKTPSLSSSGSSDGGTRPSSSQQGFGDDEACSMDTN
The assay can be described thus: co-IP; HEK293 lysate (50 mM Tris-HCl pH 6.7, 150 mM NaCl, 1% NP40, 0.25% sodium deoxycholate, 1 mM EDTA) incubated with anti-USP4 antibody or control normal rabbit IgG, µMACS MicroBeads and columns; western blot with antibodies to USP4 and EPS8. (In general: A western blot detects proteins with antibodies after separation by electrophoresis.)

Results are given in words; binding and its absence hold for the method and conditions named. Binding seen in cells or lysates may run through a third protein. Some results given as binding are weak or reduced against the parent protein; the word gives no strength.

In the case of EPS8 (from UniProt Q12929 1-822), the binding entry was “binds”.
